The test deals with T1, 3HA-PLIN5 (UniProt Q00G26).
T1 sequence: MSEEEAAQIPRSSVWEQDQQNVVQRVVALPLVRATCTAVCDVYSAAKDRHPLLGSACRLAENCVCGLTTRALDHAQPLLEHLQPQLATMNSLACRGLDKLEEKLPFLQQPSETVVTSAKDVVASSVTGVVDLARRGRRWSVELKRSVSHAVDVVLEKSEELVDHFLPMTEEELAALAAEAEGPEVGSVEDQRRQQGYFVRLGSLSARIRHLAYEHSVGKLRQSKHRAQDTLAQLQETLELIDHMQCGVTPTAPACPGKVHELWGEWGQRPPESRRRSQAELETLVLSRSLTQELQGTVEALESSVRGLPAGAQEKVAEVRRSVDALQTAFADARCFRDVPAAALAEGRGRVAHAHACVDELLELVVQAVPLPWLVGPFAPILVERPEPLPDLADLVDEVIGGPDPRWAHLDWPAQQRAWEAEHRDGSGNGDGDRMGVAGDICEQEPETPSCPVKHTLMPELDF
As to the kind of experiment: affinity purification with mass spectrometry; anti-HA agarose immunoprecipitation from lysates (1% n-dodecyl-β-D-maltoside, 150 mmol/L NaCl, HEPES pH 7.4) of HEK293T cells stably expressing 3HA-PLIN5 versus 3HA-eGFP, 4°C overnight; label-free proteomics.

By UniProt entry, the sequences of proteins in these tests, tags left out. Where a name states a change or a piece, a line headed by the entry shows the natural chain unless it says otherwise.
UniProt Q8NBQ5: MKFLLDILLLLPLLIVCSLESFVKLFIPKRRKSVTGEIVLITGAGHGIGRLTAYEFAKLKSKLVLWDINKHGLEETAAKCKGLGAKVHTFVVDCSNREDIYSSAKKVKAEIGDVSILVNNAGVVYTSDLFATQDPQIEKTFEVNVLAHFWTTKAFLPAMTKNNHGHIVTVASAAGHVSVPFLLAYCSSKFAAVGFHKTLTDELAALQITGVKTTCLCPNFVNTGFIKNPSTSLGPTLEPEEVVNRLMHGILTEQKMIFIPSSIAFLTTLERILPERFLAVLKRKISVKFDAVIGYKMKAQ

These are yes or no findings as the source states them, for the method shown. In cells and extracts the contact can be indirect. A yes stands for co-enrichment or nearness to the bait. Other partners may have been found.

As for “HSD17β11 (hydroxysteroid 17β dehydrogenase 11), endogenous (from UniProt Q8NBQ5)”, the binding result is “binds”.

For the origin of these results see publication PMC12743511, “HSD17β11 regulates PLIN5-ATGL mediated lipolysis, but not hepatic lipid metabolism in mice” (Journal of Lipid Research, 2025).
